# pEC50: −log10 of the molar value.
# Target: T1, Peroxisome proliferator-activated receptor gamma (Homo sapiens, UniProt P37231)
# T1 sequence (P37231 whole entry): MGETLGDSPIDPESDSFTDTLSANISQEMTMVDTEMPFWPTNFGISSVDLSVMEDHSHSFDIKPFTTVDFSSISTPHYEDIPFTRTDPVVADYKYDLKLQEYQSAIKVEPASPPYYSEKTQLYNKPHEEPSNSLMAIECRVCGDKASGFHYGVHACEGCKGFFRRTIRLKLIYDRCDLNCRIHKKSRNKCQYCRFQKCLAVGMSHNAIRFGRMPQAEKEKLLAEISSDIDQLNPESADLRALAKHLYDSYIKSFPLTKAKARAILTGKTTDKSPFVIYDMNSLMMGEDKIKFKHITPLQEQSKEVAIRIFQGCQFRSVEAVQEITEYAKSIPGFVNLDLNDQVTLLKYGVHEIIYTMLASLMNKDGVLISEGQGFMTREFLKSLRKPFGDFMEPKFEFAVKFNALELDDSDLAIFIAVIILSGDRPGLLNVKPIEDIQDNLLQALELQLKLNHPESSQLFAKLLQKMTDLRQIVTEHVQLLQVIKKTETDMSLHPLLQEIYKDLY
structure (smiles),measurement,value
CCCCCCCN(CCc1ccc(SC(C)(C)C(=O)O)cc1)C(=O)Nc1ccc(F)cc1F [GSK-9578],pEC50,6.00
